For part of these data: At least one structure is not confirmed: it was looked up by name or label, or the drawing left a doubt. Some of these results come from one statement about several compounds together.
Tests used:
[1] = test system: A549 cellular spheroids; assay: Efficacy on pre-formed cellular spheroids in alginate-based 3D cell culture (CellTox dead stain); conditions: pre-formed A549 spheroids (11 days), concentrations near IC90 values, 7 days after drug treatment; FIG. 5
Protocol: To evaluate the efficacy of the drugs in diffusion-limited environments, A549 cells were embedded and cultured for 11 days before any drug treatment (BBI-608, BBI-503, gemcitabine, or doxorubicin). Spheroids of A549 cells were pre-formed from single cells embedded in an alginate-based 3D cell culture for 11 days. The pre-formed spheroids were treated with drugs (0.3 μM BBI-608, 2.5 μM BBI-503, 30 μM sunitinib, 4 μM doxorubicin, 0.5 μM gemcitabine) and incubated with the dead stain CellTox Dye. Micrographs were taken 7 days after the drug treatments.
In a 6-well plate, A549 cells were embedded in an alginate-based 3D cell culture and cultured for 11 days before addition of BBI-608, BBI-503, sunitinib, doxorubicin, and gemcitabine. Cells were cultured for an additional 7 days before staining them with CellTox™ Green Dye (Promega) to stain the dead cells. Images of the stained samples were taken using an EVOS fluorescence microscope (Life Technologies, Carlsbad, Calif.).

[2] = test system: A549 cells; assay: Sphere formation assay in alginate-based 3D cell culture, IC50 compared with clonogenic assay in conventional 2D culture; conditions: 3D sphere formation vs 2D clonogenic assay, FIG. 4A
Text: Without limiting the scope of the present disclosure or appended claims with any particular theory or hypothesis, since the stemness is associated with a resistance to chemotherapy, cells cultured in an alginate-based 3D cell culture may be more resistant to chemotherapy drugs and more sensitive to stemness-targeting drugs than cells cultured in traditional 2D cultures. To evaluate the response of cells to drugs, the IC50 values of cells in both the alginate-based 3D and the conventional 2D cell cultures were determined. […] To compare the effect of culturing cells in the alginate-based 3D and the conventional 2D cell cultures on IC50, the fold change in resistance can be calculated by obtaining the ratio of IC50 value in the alginate-based 3D cell culture to the IC50 value in the conventional 2D culture.
Into each well of a flat bottom-96 well plate, 30 μL suspension of the cells in alginate solution was dispensed. […] The number of spheres were counted, and used to calculate the IC50 values using Prism 5 (GraphPad).
A549 cells were plated in 6-well plates (1×10^3 A549 cells/well). […] The colonies were imaged using a ChemiDoc™ MP Imaging System (BioRad), and the number of colonies were counted using ImageJ (National Institutes of Health, Bethsada, Md.), and the IC50 values calculated using Prism 5.

In the case of `COc1cccc2c1C(=O)c1c(O)c3c(c(O)c1C2=O)C[C@@](O)(C(=O)CO)C[C@@H]3O[C@H]1C[C@H](N)[C@H](O)[C@H](C)O1` [doxorubicin, reference compound], the “cell death, share of spheroids” value [1] is reported as “no more than 40%”.

`Nc1ccn([C@@H]2O[C@H](CO)[C@@H](O)C2(F)F)c(=O)n1` [gemcitabine, reference compound] was tested, and the “cell death, share of spheroids” value [1] was “no more than 40%”.

In the case of `CCN(CC)CCNC(=O)c1c(C)[nH]c(/C=C2\C(=O)Nc3ccc(F)cc32)c1C` [sunitinib, reference compound], the “IC50 in the alginate-based 3D cell culture relative to the conventional 2D culture” value [2] is reported as “greater”.
